Results are given in words; binding and its absence hold for the method and conditions named. Some binding calls cover weakened binding; strength is not graded here.

Sequences of proteins named here, by UniProt entry; tags and fusion partners are left off. Residues count along the entry.
UniProt P10809, residues 27-573: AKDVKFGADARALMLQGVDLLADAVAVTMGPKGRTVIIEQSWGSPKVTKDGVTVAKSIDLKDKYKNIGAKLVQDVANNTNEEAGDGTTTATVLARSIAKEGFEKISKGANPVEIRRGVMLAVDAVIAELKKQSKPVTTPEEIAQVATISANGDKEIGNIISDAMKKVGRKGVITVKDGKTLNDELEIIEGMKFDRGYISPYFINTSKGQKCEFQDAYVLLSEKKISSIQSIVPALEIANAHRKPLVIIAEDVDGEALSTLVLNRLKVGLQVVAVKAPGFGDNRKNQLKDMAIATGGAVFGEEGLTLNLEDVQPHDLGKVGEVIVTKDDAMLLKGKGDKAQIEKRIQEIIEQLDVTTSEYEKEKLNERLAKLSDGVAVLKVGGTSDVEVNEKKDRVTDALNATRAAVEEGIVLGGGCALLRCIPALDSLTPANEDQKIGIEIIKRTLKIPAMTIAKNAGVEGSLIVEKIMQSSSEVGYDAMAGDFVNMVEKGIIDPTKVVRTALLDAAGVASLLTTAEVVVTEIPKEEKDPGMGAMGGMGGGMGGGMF

Experiment [1] concerns the target mitochondrial Hsp60 chaperonin complex (human (endogenous in 143B and HepG2)) (UniProt P10809). The experiment is described as follows: native gel or EMSA; BN-PAGE and Western blot of HepG2 cell mitochondria solubilised in 1% (w/v) digitonin, 0.2% (w/v) dodecyl maltoside or 1% (v/v) TX-100; anti-MCAD or anti-NDUFA9 antibodies. In general terms: Mobility shift assays separate free from complexed probe on a gel.

The target is the same in experiment [2]. The experiment is described as follows: native gel or EMSA; 35S-labelled in vitro translated protein incubated at 37 °C with freshly isolated 143B mitochondria (5 to 60 min), mitochondria solubilised in 1% (v/v) TX-100 or 1% (w/v) digitonin, BN-PAGE.

B1: Medium-chain acyl-Coenzyme A dehydrogenase (enzyme, UniProt P11310 26-421, looked up)
chain: KANRQREPGLGFSFEFTEQQKEFQATARKFAREEIIPVAAEYDKTGEYPVPLIRRAWELGLMNTHIPENCGGLGLGTFDACLISEELAYGCTGVQTAIEGNSLGQMPIIIAGNDQQKKKYLGRMTEEPLMCAYCVTEPGAGSDVAGIKTKAEKKGDEYIINGQKMWITNGGKANWYFLLARSDPDPKAPANKAFTGFIVEADTPGIQIGRKELNMGQRCSDTRGIVFEDVKVPKENVLIGDGAGFKVAMGAFDKTRPVVAAGAVGLAQRALDEATKYALERKTFGKLLVEHQAISFMLAEMAMKVELARMSYQRAAWEVDSGRRNTYYASIAKAFAGDIANQLATDAVQILGGNGFNTEYPVEKLMRDAKIYQIYEGTSQIQRLIVAREHIDKYKN
modifications: [35S]-methionine/cysteine
notes: MCAD cDNA translated as the precursor; after import a proteinase K resistant mature form is seen; 421 amino acid precursor, mature 396 amino acids; Imported into mitochondria that hold endogenous MCAD, so the labelled ~175 kDa tetramer may be mixed with endogenous chains; also called MCAD; radiolabeled MCAD; source: in vitro translated (pGEM4Z, TnT Coupled Reticulocyte Lysate System), imported …
For B1, the binding result in experiment [1] and in experiment [2] was “binds” each time.

For the origin of these results see article PMC5760697, “Loss of the Mitochondrial Fatty Acid β-Oxidation Protein Medium-Chain Acyl-Coenzyme A Dehydrogenase Disrupts Oxidative Phosphorylation Protein Complex Stability and Function” (Scientific Reports, 2018).
